# Data as given in paper PMC7712824.
# Target: CTD of Mfa5 (Halo chimera) (Porphyromonas gingivalis) (UniProt B2RHG5)
# Experiment: pull-down; porN mutant cells expressing a Halo-CTD chimera treated with DTBP; partially purified sample bound to HaloLink Resin, washed three times, eluted with SDS sample buffer containing dithiothreitol, immunoblot with anti-PorV
substance,measurement,value
PorV (PGN_0023) (from UniProt A0A134DMH4),binding,binds

# These are yes or no findings as the source states them, for the method shown. Binding seen in cells or lysates may run through a third protein. A result given as binding can be weak or reduced; the word gives no strength.
